Values as published with doi:10.1371/journal.pone.0140310, rounded.

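Human melanoma cells were exposed to two drugs together for 72 h in 1,536-well plates and read by automated microscopy after fixing and staining. The read-out is cell count (nuclei) in % of the DMSO control; lower values mean stronger growth inhibition or killing. Concentrations were fixed for each drug; these are the lower of two levels, a fifth of the higher. The file gives one value for each pair and line, without errors, so small differences may be noise.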 An unselected part of the screen is shown.

Drugs:
OSI-906 (0.4 µM): C[C@]1(O)C[C@@H](c2nc(-c3ccc4ccc(-c5ccccc5)nc4c3)c3c(N)nccn32)C1
lapatinib (0.8 µM): CS(=O)(=O)CCNCc1ccc(-c2ccc3ncnc(Nc4ccc(OCc5cccc(F)c5)c(Cl)c4)c3c2)o1
gemcitabine (0.0004 µM): Nc1ccn([C@@H]2O[C@H](CO)[C@@H](O)C2(F)F)c(=O)n1
IMD-0354 (0.016 µM): O=C(Nc1cc(C(F)(F)F)cc(C(F)(F)F)c1)c1cc(Cl)ccc1O
crizotinib (0.2 µM): C[C@@H](Oc1cc(-c2cnn(C3CCNCC3)c2)cnc1N)c1c(Cl)ccc(F)c1Cl
tozasertib (0.006 µM): Cc1cc(Nc2cc(N3CCN(C)CC3)nc(Sc3ccc(NC(=O)C4CC4)cc3)n2)n[nH]1
vismodegib (1 µM): CS(=O)(=O)c1ccc(C(=O)Nc2ccc(Cl)c(-c3ccccn3)c2)c(Cl)c1
temozolomide (2 µM): Cn1nnc2c(C(N)=O)ncn2c1=O
stibogluconate (2 µM): O=C(O)[C@@H]1[O][Sb](=[O])([O][Sb]2(=[O])[O][C@H]([C@H](O)CO)[C@H](O)[C@H](C(=O)O)[O]2)[O][C@H]([C@H](O)CO)[C@@H]1O (some centres undefined)
decitabine (0.1 µM): Nc1ncn([C@H]2C[C@H](O)[C@@H](CO)O2)c(=O)n1

Pair,A375,A2058,MEL-HO,IPC-298,COLO 800,G-361,LOX IMVI,COLO 829,IST-MEL1,A101D,C32
IMD-0354 + tozasertib,85.2,96.5,98.0,91.6,83.9,97.6,49.6,99.5,93.7,88.3,84.1
crizotinib + stibogluconate,101,82.7,105,90.6,139,97.7,141,94.9,104,103,112
tozasertib + vismodegib,106,88.9,91.3,99.1,87.5,109,98.3,79.7,94.5,101,86.5
temozolomide + IMD-0354,89.8,87.5,120,96.9,131,87.9,278,80.0,86.5,96.1,97.1
OSI-906 + crizotinib,94.5,107,97.2,91.0,36.4,90.5,127,87.9,113,92.3,80.2
stibogluconate + OSI-906,60.7,89.2,97.9,94.5,53.7,92.0,91.7,94.8,100,100,109
IMD-0354 + stibogluconate,84.7,107,114,102,99.9,95.1,76.7,91.0,83.6,107,98.9
tozasertib + stibogluconate,134,118,109,97.4,109,105,164,90.2,107,97.3,129
temozolomide + tozasertib,106,83.6,78.1,93.9,86.1,92.2,39.6,82.1,85.3,91.5,87.6
tozasertib + gemcitabine,117,104,93.6,90.3,78.2,112,164,95.2,94.7,99.0,107
lapatinib + IMD-0354,102,99.2,92.3,93.5,105,104,94.4,88.8,92.0,108,103
gemcitabine + temozolomide,85.2,75.4,77.4,85.1,79.5,89.6,62.7,90.2,77.2,93.9,104
vismodegib + lapatinib,96.5,91.8,90.7,98.6,93.4,88.7,93.2,97.4,98.1,101,113
temozolomide + crizotinib,105,107,94.6,97.9,68.9,85.7,138,84.3,98.1,95.0,107
OSI-906 + lapatinib,70.3,75.2,105,107,76.4,91.5,134,83.5,106,99.5,92.3
vismodegib + stibogluconate,117,103,114,95.0,81.6,109,73.0,95.0,111,112,96.5
tozasertib + lapatinib,103,87.2,94.3,101,66.9,94.4,78.3,105,97.1,84.3,81.0
lapatinib + crizotinib,90.6,82.3,101,89.7,89.1,101,94.6,78.7,100,88.8,100
OSI-906 + decitabine,58.5,84.3,86.8,71.9,41.3,90.3,253,99.4,91.5,92.2,109
decitabine + crizotinib,124,101,98.5,66.1,76.8,108,83.2,65.1,84.5,95.5,102
stibogluconate + decitabine,92.7,103,94.3,66.3,69.7,98.4,134,92.0,91.0,91.4,99.3
IMD-0354 + decitabine,100,90.3,87.2,71.0,60.7,78.7,92.5,82.7,76.4,90.6,102
lapatinib + temozolomide,97.7,81.0,89.9,101,80.9,110,83.4,74.3,91.7,101,94.5
OSI-906 + tozasertib,51.8,92.1,98.4,94.4,82.1,82.6,107,96.6,91.1,89.4,94.1
vismodegib + temozolomide,103,86.2,101,89.6,90.0,92.3,107,89.4,93.9,88.6,112
gemcitabine + lapatinib,95.3,87.1,87.1,92.3,82.1,86.0,59.5,104,88.2,85.4,116
decitabine + tozasertib,84.0,79.8,89.7,64.7,69.5,76.4,82.5,77.2,66.3,82.6,91.3
temozolomide + decitabine,104,60.3,74.8,68.3,97.3,74.2,85.9,72.6,83.8,90.9,132
OSI-906 + IMD-0354,65.7,92.0,99.9,89.7,43.4,80.3,99.7,105,88.4,101,101
vismodegib + gemcitabine,121,103,90.3,99.2,96.1,92.8,125,104,85.7,111,107
tozasertib + crizotinib,101,103,87.0,97.3,126,77.7,90.2,87.8,93.6,98.9,91.3
stibogluconate + temozolomide,83.8,84.4,117,94.3,91.4,88.2,98.1,108,94.0,91.7,106
decitabine + lapatinib,117,73.2,82.9,69.4,136,88.7,108,68.7,91.4,90.0,108
stibogluconate + gemcitabine,111,96.8,82.5,89.3,79.4,63.2,92.0,81.3,67.9,102,81.9
crizotinib + gemcitabine,129,101,105,99.5,108,103,116,83.9,77.6,97.3,95.3
gemcitabine + OSI-906,63.2,79.6,72.5,84.7,56.7,83.2,107,95.0,80.0,97.7,105
IMD-0354 + crizotinib,111,112,104,106,139,97.0,95.3,107,105,112,96.5
OSI-906 + temozolomide,70.2,82.9,101,90.5,61.9,97.4,87.1,69.3,95.6,73.5,95.4

Once more, the final 5:

| Pair | A375 | A2058 | MEL-HO | IPC-298 | COLO 800 | G-361 | LOX IMVI | COLO 829 | IST-MEL1 | A101D | C32 |
|---|---|---|---|---|---|---|---|---|---|---|---|
| stibogluconate + gemcitabine | 111 | 96.8 | 82.5 | 89.3 | 79.4 | 63.2 | 92.0 | 81.3 | 67.9 | 102 | 81.9 |
| crizotinib + gemcitabine | 129 | 101 | 105 | 99.5 | 108 | 103 | 116 | 83.9 | 77.6 | 97.3 | 95.3 |
| gemcitabine + OSI-906 | 63.2 | 79.6 | 72.5 | 84.7 | 56.7 | 83.2 | 107 | 95.0 | 80.0 | 97.7 | 105 |
| IMD-0354 + crizotinib | 111 | 112 | 104 | 106 | 139 | 97.0 | 95.3 | 107 | 105 | 112 | 96.5 |
| OSI-906 + temozolomide | 70.2 | 82.9 | 101 | 90.5 | 61.9 | 97.4 | 87.1 | 69.3 | 95.6 | 73.5 | 95.4 |